# Reference: the supplement of paper PMC6411743
# ± gives the standard deviation of the averaged measurements. The list shows a part of the results.
# Target: T1, ZHX2 (UniProt Q9Y6X8)
# T1 sequence (whole entry): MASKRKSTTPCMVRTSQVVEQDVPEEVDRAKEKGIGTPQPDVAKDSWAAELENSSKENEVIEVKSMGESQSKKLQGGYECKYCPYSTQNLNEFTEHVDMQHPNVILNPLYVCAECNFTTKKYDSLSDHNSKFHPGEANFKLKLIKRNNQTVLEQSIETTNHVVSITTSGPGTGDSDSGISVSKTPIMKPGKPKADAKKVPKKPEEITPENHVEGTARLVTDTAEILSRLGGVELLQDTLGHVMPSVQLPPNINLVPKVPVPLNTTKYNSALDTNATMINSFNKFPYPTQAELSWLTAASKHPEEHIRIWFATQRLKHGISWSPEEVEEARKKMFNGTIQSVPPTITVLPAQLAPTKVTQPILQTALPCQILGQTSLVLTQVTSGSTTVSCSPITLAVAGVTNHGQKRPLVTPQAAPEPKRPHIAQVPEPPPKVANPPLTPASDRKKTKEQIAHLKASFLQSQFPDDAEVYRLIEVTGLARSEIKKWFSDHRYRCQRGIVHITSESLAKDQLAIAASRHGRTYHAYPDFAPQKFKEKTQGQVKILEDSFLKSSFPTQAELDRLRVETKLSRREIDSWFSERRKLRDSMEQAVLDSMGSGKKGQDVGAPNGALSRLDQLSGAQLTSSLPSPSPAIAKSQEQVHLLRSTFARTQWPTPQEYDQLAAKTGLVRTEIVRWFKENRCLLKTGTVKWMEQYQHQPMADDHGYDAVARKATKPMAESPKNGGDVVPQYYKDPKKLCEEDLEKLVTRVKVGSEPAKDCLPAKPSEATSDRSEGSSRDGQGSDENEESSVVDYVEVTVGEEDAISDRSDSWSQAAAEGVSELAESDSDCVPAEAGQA
# Assay: NP40-soluble protein abundance relative to vehicle (solubility fold change) (ratio); higher = more soluble protein in presence of GTP
# Description: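 Solubility proteome profiling in Jurkat crude lysate. Lysate was treated with Mg-GTP (0.1-10 mM) for 10 min at room temperature and 3 min at 37 °C, then solubilised with 0.8% NP40 and benzonase, followed by ultracentrifugation. Proteins were quantified by TMT10 LC-MS/MS; the value is the NP40-soluble abundance relative to the NP40-processed vehicle, from 3 independent experiments.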
smiles,measurement,setting,value
Nc1nc2c(ncn2[C@@H]2O[C@H](COP(=O)(O)OP(=O)(O)OP(=O)(O)O)[C@@H](O)[C@H]2O)c(=O)[nH]1 [guanosine triphosphate],NP40-soluble protein abundance,concentration: 0.1mM,0.999 ± 0.011
same,NP40-soluble protein abundance,concentration: 0.5mM,0.967 ± 0.04
same,NP40-soluble protein abundance,concentration: 1mM,0.995 ± 0.013
same,NP40-soluble protein abundance,concentration: 2mM,0.967 ± 0.069
same,NP40-soluble protein abundance,concentration: 4mM,0.993 ± 0.071
same,NP40-soluble protein abundance,concentration: 6mM,0.993 ± 0.047
same,NP40-soluble protein abundance,concentration: 8mM,1.01 ± 0.05
same,NP40-soluble protein abundance,concentration: 10mM,0.991 ± 0.075

# Pulled one by one from above:
smiles,measurement,setting,value
Nc1nc2c(ncn2[C@@H]2O[C@H](COP(=O)(O)OP(=O)(O)OP(=O)(O)O)[C@@H](O)[C@H]2O)c(=O)[nH]1 [guanosine triphosphate],NP40-soluble protein abundance,concentration: 0.5mM,0.967 ± 0.04
same,NP40-soluble protein abundance,concentration: 1mM,0.995 ± 0.013
